Not every detail of the peptide structures is certain; ends, links or a residue may be inferred. Non-standard residues stand in square brackets, D forms with d. Residues, ends and D or L forms follow the SMILES beside them. pT = C[C@@H](OP(=O)(O)O)[C@H](N)C(=O)O
How the values were obtained:
[1] = target: T1, GST-Plk-1 PBD (residues 326-603) interaction with mitotic phosphoproteins (Homo sapiens, UniProt P53350); test: Peptide competition of GST-Plk-1 PBD pull-down of MPM-2 mitotic phosphoproteins from HeLa lysates; type: binding; settings: 320 μM peptide, 45 minutes at 4° C., nocodazole-arrested HeLa lysates
T1 construct: GST-Plk-1 (residues 326-603) was immobilized on glutathionine beads; made in house; host or cells: E. coli BL21
Procedure: HeLa cells were arrested in interphase or G2/M by treatment with aphidicolin (5 μg/mL) or nocodazole (50 ng/mL), respectively, for 16 hours. Cells were lysed in 25 mM Tris/HCl (pH 7.5) containing 125 mM NaCl, 0.5% NP-40, 5 mM EDTA, 2 mM DTT, 4 μg/mL pepstatin, 4 μg/mL aprotinin, 4 μg/mL leupeptin, 1 mM Na3VO4, 50 mM NaF, and […] microcystin, and 150 μgs of lysate incubated with 10 μL of glutathione agarose beads containing 2-5 μg of GST-Plk-1 (residues 326-603), GST-Pin1, or GST for 30 minutes at 4° C. Beads were washed four times with lysis buffer. Precipitated proteins were eluted in sample buffer and detected by blotting with monoclonal MPM-2 (Upstate Biotechnology, Inc.) or polyclonal anti-Cdc25C (Santa Cruz Biotechnology, Santa Cruz, Calif.). For peptide competition experiments, GST-Plk-1 (residues 326-603) was immobilized on glutathionine beads and preincubated with 320 μM of PoloBoxtide-optimal, −8T, or −7V for 45 minutes at 4° C. For binding experiments involving mutant cdc25C, HeLa cells were transfected with wild-type and mutated versions of HA-tagged Cdc25C in pECE using Superfect (Qiagen, Valencia, Calif.). […]

Chains of the proteins cited; added tags and fusions are not shown. Residues count along the entry.
UniProt P53350, 326-603: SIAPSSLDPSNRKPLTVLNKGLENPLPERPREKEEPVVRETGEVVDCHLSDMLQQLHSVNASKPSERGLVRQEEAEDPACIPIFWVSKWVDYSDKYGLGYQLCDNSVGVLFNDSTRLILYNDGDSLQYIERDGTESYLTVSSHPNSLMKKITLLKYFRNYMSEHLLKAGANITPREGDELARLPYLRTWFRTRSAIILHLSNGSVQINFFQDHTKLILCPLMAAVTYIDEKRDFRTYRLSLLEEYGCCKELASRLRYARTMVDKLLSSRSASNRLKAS
UniProt P53350, whole entry: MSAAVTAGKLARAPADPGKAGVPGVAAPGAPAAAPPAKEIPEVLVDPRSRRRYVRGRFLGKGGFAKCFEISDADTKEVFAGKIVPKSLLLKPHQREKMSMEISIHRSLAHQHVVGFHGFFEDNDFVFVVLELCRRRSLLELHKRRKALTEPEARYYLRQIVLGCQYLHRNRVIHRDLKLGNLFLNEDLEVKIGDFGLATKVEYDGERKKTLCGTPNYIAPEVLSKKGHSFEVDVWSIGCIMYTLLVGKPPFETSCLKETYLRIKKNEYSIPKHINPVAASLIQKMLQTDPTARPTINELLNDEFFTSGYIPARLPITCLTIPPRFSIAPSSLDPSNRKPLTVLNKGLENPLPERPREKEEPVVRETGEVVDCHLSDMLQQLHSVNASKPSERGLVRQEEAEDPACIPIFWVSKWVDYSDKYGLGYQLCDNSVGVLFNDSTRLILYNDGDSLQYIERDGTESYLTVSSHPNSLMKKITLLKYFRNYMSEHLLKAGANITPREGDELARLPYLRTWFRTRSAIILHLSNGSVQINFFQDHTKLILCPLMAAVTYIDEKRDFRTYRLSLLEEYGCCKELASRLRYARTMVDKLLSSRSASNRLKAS
UniProt P53350, 326-603 H538A/K540M: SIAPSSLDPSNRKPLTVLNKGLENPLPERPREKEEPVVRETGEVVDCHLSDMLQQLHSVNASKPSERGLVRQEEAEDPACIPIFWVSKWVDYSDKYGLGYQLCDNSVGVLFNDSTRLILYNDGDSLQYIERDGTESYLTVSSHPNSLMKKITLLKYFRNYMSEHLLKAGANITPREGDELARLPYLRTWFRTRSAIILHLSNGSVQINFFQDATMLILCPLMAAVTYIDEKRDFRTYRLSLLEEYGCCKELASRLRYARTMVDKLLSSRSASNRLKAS

[2] = target: T2, GST-Plk-1 PBD interaction with Cdc25C (Homo sapiens, UniProt P53350); test: Peptide competition of GST-Plk-1 PBD pull-down of Cdc25C from mitotic HeLa lysates; type: binding; settings: 320 μM peptide, 45 minutes at 4° C.
T2 construct: incubated with a GST fusion of the Plk-1 PBD (residues 326-603); made in house; host or cells: E. coli BL21 (GST-PBD); Cdc25C endogenous from nocodazole-arrested HeLa lysate

[3] = test system: centrosomal localization of GST-Plk-1 PBD in U2OS cells; test: Centrosomal localization of GST-Plk-1 PBD in permeabilized U2OS cells with peptide competition; type: cell-based, human; settings: 250 μM peptide; nocodazole-arrested, Streptolysin-O permeabilized U2OS cells
Procedure: U2OS cells were cultured in 8-well chamber slides and arrested at G2/M by treatment with nocodazole (50 ng/mL) for 14 hours. After rinsing with PBS, cells were incubated with 4 μM GST-Plk-1 PBD (residues 326-603) and Streptolysin-O (1 U/ml) in permeabilization buffer (25 mM HEPES (pH 7.9), 100 mM KCl, 3 mM NaCl, 200 mM sucrose, 20 mM NaF, 1 mM NaOVO4) for 20 minutes at 37° C. Cells were fixed in 3% paraformaldehyde/2% sucrose for 10 minutes at room temperature and extracted with a 0.5% Triton X-100 solution containing 20 mM Tris-HCl (pH 7.4), 50 mM NaCl, 300 mM sucrose, and 3 mM MgCl2 for 10 minutes at RT. […] Cells were examined using a Nikon Eclipse E600 fluorescence microscope equipped with a SPOT RTcamera and software (Diagnostic Instruments, Livingston, Scotland). Images were analyzed using NIH Image. […]
The normalized intensity of centrosome-specific Alexa Fluor 488 staining (N.I.AF488) or Texas Red staining (N.I.TR) above background was defined as ([Icentrosome−1cell]/Icell) where Icentrosome indicates the fluorescence intensity of either Alexa-Fluor 488 or Texas Red averaged over the centrosome and Icell indicates the overall fluorescence intensity averaged over the entire cell. The relative GST-PBD/γ-tubulin specific staining was then calculated as N.I.AF488/NITR.

[4] = target: T3, GST-Plk1 (full-length) (Homo sapiens, UniProt P53350); test: Plk1 kinase assay (32P-incorporation into casein) with peptide activation; type: biochemical; settings: 250 μM peptide pre-incubated 5 minutes at room temperature; three independent experiments
T3 construct: SF9 cells infected with baculoviral GST-Plk1 (full-length) were lysed; made in house; host or cells: SF9 insect cells (baculovirus)
Procedure: SF9 cells infected with baculoviral GST-Plk1 (full-length) were lysed in 20 mM Hepes/KOH (pH 7.5), 135 mM NaCl, 1% NP40, 5 mM EGTA, 5 μM 13-mercaptoethanol, 35 mM NaF, 0.5 mM Na3VO4, 20 mM β-glycerolphosphate, 3 μM microcystin, 1 μM okadaic acid, 10 μg/mL pepstatin, 10 μg/mL leupeptin, and 10 μg/mL aprotinin. Lysates were incubated for 2 hours at 4° C. with glutathione beads, which were subsequently washed five times with 20 mM Hepes/KOH (pH 7.5), 415 mM NaCl, 0.1% CHAPS, 5 mM EGTA, 5 μM β-mercaptoethanol, 35 mM NaF, and 0.5 mM Na3VO4 at 4° C. Bound proteins were eluted with a buffer containing 30 mM glutathione, 50 mM Hepes/KOH (pH 8.0), 25 mM NaCl, 2 mM MgCl2, 1 mM EGTA, and 5 μM β-mercaptoethanol and dialyzed against 10 mM Hepes, 10 mM NaCl, 1 mM EGTA, 1 mM DTT for 3 hours at 4° C. Kinase reactions were performed in 20 mM Hepes/KOH (pH7.5), 15 mM KCl, 10 mM MgCl2, 1 mM EGTA, 100 µM ATP, 5 μCi γ-[^32P]-ATP, 1 mM DTT, and […] casein for 15 minutes at 30° C. Reaction aliquots were removed at various time points, added to sample buffer, and boiled to arrest phosphorylation. ^32P-incorporation into casein was determined by SDS-PAGE electrophoresis, autoradiography, and densitometry using ImageQuant software (Molecular Dynamics). […]

[5] = target: T4, Plk1 PBD H538A/K540M (Homo sapiens, UniProt P53350, H538A/K540M); test: Isothermal titration calorimetry with H538A/K540M mutant Plk1 PBD; type: binding; settings: H538A/K540M mutation
T4 construct: wild-type or mutant GST-Plk1 PBD (residues 326-603); GST (N, cleaved yes); made in house; host or cells: E. coli BL21(DE3)

CSCC[C@H](NC(=O)[C@@H]1CCCN1C(=O)CNC(=O)[C@H](C)NC(=O)[C@@H](N)CCSC)C(=O)N[C@@H](CCC(N)=O)C(=O)N[C@@H](CO)C(=O)N[C@H](C(=O)N1CCC[C@H]1C(=O)N[C@@H](CC(C)C)C(=O)N[C@@H](CC(N)=O)C(=O)NCC(=O)N[C@@H](C)C(=O)N[C@@H](CCCCN)C(=O)N[C@@H](CCCCN)C(=O)O)[C@@H](C)OP(=O)(O)O [PoloBoxtide-optimal, MAGPMQ-S-pT-P-LNGAKK] (H-MAGPMQS[pT]PLNGAKK-OH)
effect of peptide pre-incubation on GST-Plk-1 PBD binding of MPM-2 epitopes [1]: disrupted | effect of peptide pre-incubation on GST-Plk-1 PBD binding of MPM-2 epitopes ([1]; listed as opt): dramatically inhibited | effect of peptide pre-incubation on GST-Plk-1 PBD interaction with Cdc25C [2]: disrupted | effect of peptide pre-incubation on GST-Plk-1 PBD interaction with Cdc25C ([2]; listed as optimal phosphopeptide ligand): completely prevented | effect of peptide on centrosomal localization of Plk-1 PBD [3]: significantly disrupted | enhancement of Plk1 kinase activity (rate of casein phosphorylation), factor [4]: 2.6 | binding of optimal phosphopeptide to mutant PBD by ITC (in words) [5]: abolishes binding

Reference: patent US20110104713A1, “PRODUCTS AND PROCESSES FOR MODULATING PEPTIDE-PEPTIDE BINDING DOMAIN INTERACTIONS” (priority 2002, published 2011)
